# Measurements from PMC5549762.
# By UniProt entry, the sequences of proteins in these tests, tags left out.
# UniProt Q9W349: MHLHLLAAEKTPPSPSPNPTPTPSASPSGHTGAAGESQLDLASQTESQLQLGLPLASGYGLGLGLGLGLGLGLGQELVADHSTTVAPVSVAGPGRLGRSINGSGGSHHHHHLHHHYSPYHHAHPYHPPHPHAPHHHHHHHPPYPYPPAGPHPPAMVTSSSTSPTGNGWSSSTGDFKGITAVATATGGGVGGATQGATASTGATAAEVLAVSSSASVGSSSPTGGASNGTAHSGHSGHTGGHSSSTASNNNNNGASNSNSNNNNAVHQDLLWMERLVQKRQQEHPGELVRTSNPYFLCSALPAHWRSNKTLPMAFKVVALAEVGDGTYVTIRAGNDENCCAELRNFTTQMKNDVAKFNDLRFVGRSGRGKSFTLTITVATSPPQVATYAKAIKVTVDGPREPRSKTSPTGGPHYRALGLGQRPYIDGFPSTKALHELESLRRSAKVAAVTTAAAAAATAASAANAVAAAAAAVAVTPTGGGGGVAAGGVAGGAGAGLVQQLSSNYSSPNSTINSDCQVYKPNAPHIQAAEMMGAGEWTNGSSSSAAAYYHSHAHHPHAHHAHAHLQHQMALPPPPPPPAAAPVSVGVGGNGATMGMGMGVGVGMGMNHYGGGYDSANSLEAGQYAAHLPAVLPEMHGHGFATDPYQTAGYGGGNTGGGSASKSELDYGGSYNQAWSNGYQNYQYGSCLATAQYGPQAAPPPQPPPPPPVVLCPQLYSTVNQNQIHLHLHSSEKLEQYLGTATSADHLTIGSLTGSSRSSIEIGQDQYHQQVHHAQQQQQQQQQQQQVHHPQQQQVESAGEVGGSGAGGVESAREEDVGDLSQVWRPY
# No constants are given. Whether binding was seen depends on the method and setting. In cells and extracts the contact can be indirect. Binding can be weak; no strength is given. For part of these data: Tags and fused reporters may be left off the sequences shown.
# T1: GFP-MLF (from pAc-MLF-EGFP) (Drosophila) (UniProt Q9NKV0)
# T1 sequence: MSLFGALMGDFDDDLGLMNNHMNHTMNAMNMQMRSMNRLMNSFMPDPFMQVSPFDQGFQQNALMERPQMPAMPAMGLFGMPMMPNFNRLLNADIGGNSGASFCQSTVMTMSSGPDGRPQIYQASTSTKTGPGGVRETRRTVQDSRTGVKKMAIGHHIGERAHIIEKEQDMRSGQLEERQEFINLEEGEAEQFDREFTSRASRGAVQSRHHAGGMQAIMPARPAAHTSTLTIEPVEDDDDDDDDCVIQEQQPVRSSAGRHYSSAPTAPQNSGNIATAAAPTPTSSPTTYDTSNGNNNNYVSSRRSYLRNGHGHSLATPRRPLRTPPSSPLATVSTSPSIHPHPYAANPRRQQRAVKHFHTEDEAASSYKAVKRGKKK
# T2: HA-MLF (96-202), from pAc-3xHA-MLF (96-202) (Drosophila) (UniProt Q9NKV0)
# T2 sequence: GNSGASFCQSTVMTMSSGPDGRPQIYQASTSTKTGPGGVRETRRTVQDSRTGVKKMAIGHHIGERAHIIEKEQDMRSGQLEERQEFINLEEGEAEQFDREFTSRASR
# B1: HA-MLF (96-202), from pAc-3xHA-MLF (96-202) (domain or fragment, UniProt Q9NKV0 96-202)
# chain: GNSGASFCQSTVMTMSSGPDGRPQIYQASTSTKTGPGGVRETRRTVQDSRTGVKKMAIGHHIGERAHIIEKEQDMRSGQLEERQEFINLEEGEAEQFDREFTSRASR
# B2: in vitro translated 35S-methionine labeled MLF (from pBS-MLF) (protein, UniProt Q9NKV0 1-376)
# chain: MSLFGALMGDFDDDLGLMNNHMNHTMNAMNMQMRSMNRLMNSFMPDPFMQVSPFDQGFQQNALMERPQMPAMPAMGLFGMPMMPNFNRLLNADIGGNSGASFCQSTVMTMSSGPDGRPQIYQASTSTKTGPGGVRETRRTVQDSRTGVKKMAIGHHIGERAHIIEKEQDMRSGQLEERQEFINLEEGEAEQFDREFTSRASRGAVQSRHHAGGMQAIMPARPAAHTSTLTIEPVEDDDDDDDDCVIQEQQPVRSSAGRHYSSAPTAPQNSGNIATAAAPTPTSSPTTYDTSNGNNNNYVSSRRSYLRNGHGHSLATPRRPLRTPPSSPLATVSTSPSIHPHPYAANPRRQQRAVKHFHTEDEAASSYKAVKRGKKK
# modifications: 35S-methionine label
# Key:
# [1] = biological target: T1, GFP-MLF (from pAc-MLF-EGFP) (Drosophila); assay: co-IP; Kc167 cells transfected with expression plasmids for GFP- and HA-tagged proteins; 1 mg of extract in IP buffer (150 mM NaCl, 0.5% NP40, 50 mM Tris-HCl pH 8.0, 1 mM EGTA); anti-GFP antibody coupled to sepharose beads, 4h at 4°C; Western blot
# [2] = biological target: T2, HA-MLF (96-202), from pAc-3xHA-MLF (96-202) (Drosophila); assay: as above
# [3] = biological target: GFP-tagged Lozenge (from pAc-Lz-EGFP) (Drosophila) (UniProt Q9W349); assay: as above
# [4] = biological target: GST-MLF (from pGEX-MLF) (Drosophila) (UniProt Q9NKV0); assay: pull-down; GST proteins from E. coli immobilised on Glutathione-Sepharose beads; 35S-methionine-labeled in vitro translated proteins; 2h at 4°C in buffer A (20 mM Tris-HCl pH 8.0, 150 mM NaCl, 10 mM KCl, 1 mM EDTA, 0.1 mg/ml BSA, 1 mM DTT, 0.05% NP40); autoradiography; only the target purified
# [5] = biological target: GFP-DnaJ-1 (from pAc-DnaJ-J1-EGFP) (Drosophila); assay: co-IP; Kc167 cells transfected with expression plasmids for GFP- and HA-tagged proteins; 1 mg of extract in IP buffer (150 mM NaCl, 0.5% NP40, 50 mM Tris-HCl pH 8.0, 1 mM EGTA); anti-GFP antibody coupled to sepharose beads, 4h at 4°C; Western blot
# [6] = biological target: GST-DnaJ-1 (from pGEX-DnaJ-1) (Drosophila); assay: pull-down; GST proteins from E. coli immobilised on Glutathione-Sepharose beads; 35S-methionine-labeled in vitro translated proteins; 2h at 4°C in buffer A (20 mM Tris-HCl pH 8.0, 150 mM NaCl, 10 mM KCl, 1 mM EDTA, 0.1 mg/ml BSA, 1 mM DTT, 0.05% NP40); autoradiography; only the target purified
molecule,measurement,setting,value
"HA-DnaJ-1 (2-334), from pAc-3xHA-DnaJ-1 (2-334) (Drosophila)",binding,[1],binds
"HA-DnaJ-1 (58-334), from pAc-3xHA-DnaJ-1 (58-334) (Drosophila) (domain or fragment)",binding,[1],binds
"HA-DnaJ-1 (157-334), from pAc-3xHA-DnaJ-1 (157-334) (Drosophila) (domain or fragment)",binding,[1],binds
same,binding,[2],binds
"HA-DnaJ-1 (P32S), from pAc-3xHA-DnaJ-1 (P32S) (Drosophila)",binding,[1],binds
"HA-MLF (2-309), from pAc-3xHA-MLF (2-309) (from UniProt Q9NKV0-2)",binding,[3],binds
in vitro translated 35S-methionine-labeled Lz (from pET-3c-Lz) (from UniProt Q9W349 1-826),binding,[4],binds
B1,binding,[5],binds
B2,binding,[6],binds
